Test results published in PMC6449437.
No constants are given. Whether binding was seen depends on the method and setting. In cells and extracts the contact can be indirect. Some binding calls cover weakened binding; strength is not graded here.

By UniProt entry, the sequences of proteins in these tests, tags left out.
UniProt Q64669: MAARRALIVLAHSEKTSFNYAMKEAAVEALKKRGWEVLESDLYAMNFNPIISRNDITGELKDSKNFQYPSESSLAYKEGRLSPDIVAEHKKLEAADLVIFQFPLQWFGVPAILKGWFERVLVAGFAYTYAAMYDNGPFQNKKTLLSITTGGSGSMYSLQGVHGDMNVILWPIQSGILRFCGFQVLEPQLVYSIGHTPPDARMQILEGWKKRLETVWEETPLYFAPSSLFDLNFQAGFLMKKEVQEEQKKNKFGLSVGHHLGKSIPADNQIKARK
UniProt Q80XI3: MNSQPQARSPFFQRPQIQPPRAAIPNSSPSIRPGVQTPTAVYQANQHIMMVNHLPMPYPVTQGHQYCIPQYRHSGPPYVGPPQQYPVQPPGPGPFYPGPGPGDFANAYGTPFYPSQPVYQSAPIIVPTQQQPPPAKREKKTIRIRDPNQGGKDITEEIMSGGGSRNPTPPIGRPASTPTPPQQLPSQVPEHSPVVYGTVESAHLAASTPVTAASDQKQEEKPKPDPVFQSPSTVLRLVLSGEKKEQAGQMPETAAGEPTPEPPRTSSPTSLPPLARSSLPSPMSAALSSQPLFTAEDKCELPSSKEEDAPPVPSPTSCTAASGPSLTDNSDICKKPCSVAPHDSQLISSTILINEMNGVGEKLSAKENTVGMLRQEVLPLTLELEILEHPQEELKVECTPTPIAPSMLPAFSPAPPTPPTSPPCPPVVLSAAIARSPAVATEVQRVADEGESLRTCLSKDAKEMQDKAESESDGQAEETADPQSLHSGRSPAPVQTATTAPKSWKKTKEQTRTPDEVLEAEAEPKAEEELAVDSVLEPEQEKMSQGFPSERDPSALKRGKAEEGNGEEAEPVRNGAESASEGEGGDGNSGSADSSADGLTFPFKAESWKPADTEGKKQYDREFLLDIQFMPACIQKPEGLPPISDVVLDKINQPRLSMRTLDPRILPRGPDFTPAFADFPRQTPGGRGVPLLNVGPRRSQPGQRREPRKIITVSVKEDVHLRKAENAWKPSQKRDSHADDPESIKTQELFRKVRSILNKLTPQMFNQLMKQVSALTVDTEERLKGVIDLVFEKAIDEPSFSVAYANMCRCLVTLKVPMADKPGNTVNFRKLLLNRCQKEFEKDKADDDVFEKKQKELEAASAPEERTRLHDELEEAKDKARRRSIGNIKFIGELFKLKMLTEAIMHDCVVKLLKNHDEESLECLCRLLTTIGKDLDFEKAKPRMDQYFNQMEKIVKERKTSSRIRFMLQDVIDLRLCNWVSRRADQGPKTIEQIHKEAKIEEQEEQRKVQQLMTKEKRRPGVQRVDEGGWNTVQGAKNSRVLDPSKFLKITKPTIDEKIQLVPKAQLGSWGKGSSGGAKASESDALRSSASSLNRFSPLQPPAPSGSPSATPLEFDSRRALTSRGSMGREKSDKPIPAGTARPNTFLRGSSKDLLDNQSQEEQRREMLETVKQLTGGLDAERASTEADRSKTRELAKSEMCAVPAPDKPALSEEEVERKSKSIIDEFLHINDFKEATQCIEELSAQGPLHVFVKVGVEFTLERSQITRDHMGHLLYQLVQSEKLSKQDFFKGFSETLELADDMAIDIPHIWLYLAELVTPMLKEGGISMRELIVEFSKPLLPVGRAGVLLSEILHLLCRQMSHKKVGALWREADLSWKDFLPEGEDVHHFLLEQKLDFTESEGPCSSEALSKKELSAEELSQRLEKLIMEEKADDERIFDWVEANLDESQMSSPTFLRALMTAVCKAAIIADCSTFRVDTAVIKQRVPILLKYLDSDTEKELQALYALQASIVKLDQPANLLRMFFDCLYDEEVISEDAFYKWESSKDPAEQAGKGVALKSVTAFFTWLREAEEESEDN

Target: NQO1 [NAD(P)H:quinone oxidoreductase] (mouse (endogenous in NIH-3T3)) (UniProt Q64669)
Assay: co-IP; extracts of NIH-3T3 cells either untransfected or transfected with NQO1 cDNA, immunoprecipitation with anti-NQO1 antibodies, western blot with the indicated antibodies

binding: binds
Substance: eukaryotic mRNA translation initiation factor 4GII (eIF4GII) (from UniProt Q80XI3 1-1579)
